Assay [1] deals with H2-Kb (mouse) (UniProt P01901). Kind of assay: HLA peptidomics: immunoaffinity purification of MHC from B16F10.9 clone 1 cells, LC-MS/MS of eluted peptides.
Assay [2] deals with H2-Db (mouse) (UniProt P01899). Put plainly: HLA peptidomics: immunoaffinity purification of MHC from B2905 clone 2 cells, LC-MS/MS of eluted peptides.
The target of assay [3] is H2-Kb (mouse) (UniProt P01901). Kind of assay: HLA peptidomics: immunoaffinity purification of MHC from B16F10.9 parental, UVB irradiated and clone 1 cells, LC-MS/MS of eluted peptides.
Assay [4] concerns the target H2-Kb (mouse) (UniProt P01901). Kind of assay: HLA peptidomics: immunoaffinity purification of MHC from B2905 clone 2 cells, LC-MS/MS of eluted peptides.

Sequences of proteins named here, by UniProt entry; tags and fusion partners are left off. Residues count along the entry.
UniProt P01901, residues 22-305: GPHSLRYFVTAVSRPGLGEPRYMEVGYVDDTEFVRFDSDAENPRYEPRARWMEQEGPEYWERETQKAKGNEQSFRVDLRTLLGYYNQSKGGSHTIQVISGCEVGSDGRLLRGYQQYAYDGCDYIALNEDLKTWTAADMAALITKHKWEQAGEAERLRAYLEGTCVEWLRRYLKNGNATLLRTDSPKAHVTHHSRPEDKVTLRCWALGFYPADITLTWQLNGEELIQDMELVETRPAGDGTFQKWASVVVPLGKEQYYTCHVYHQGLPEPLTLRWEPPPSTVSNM
UniProt P01899, residues 25-309: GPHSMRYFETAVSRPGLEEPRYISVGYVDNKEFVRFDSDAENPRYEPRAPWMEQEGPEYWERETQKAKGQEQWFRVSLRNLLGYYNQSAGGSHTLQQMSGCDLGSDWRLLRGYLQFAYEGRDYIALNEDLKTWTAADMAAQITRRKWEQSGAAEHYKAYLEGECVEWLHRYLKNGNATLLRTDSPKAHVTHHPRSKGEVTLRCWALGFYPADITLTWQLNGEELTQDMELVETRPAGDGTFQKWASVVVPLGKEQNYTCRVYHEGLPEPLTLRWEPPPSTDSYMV

No constants are given. Whether binding was seen depends on the method and setting. In cells and extracts the contact can be indirect. Some binding calls cover weakened binding; strength is not graded here.

With TIYVFPERL [… (SEQ ID NO: 7), potential neo-antigen encoded by MlklS>F], the binding entry in assay [1] is reported as “binds”.
For the molecule ASLTHVDSL [… (SEQ ID NO: 4), neo-antigen encoded by IFI44L>S], the binding result in assay [2] is reported as “binds”.
With ANFIFRQL [ANFIFRQL (SEQ ID NO: 6), potential neo-antigen encoded by PaskS>N], the binding entry in assay [3] is given as “binds”.
With SAYEKLYSL [… (SEQ ID NO: 5), neo-antigen encoded by RPTORH>Y], in assay [4], the binding result is “binds”.

Source of the values: patent publication US20210315983A1.
